At least one peptide structure holds a part that was inferred or is arguable (an end, a ring closure or a residue). Non-standard residues stand in square brackets, D forms with d. Residues, ends and D or L forms follow the SMILES beside them. *: point of attachment. 5FAM = O=C1OC2(c3ccc(O)cc3Oc3cc(O)ccc32)c2ccc(C(=O)*)cc21
Test system: sciatic nerves
Assay: In vivo nerve labeling with fluorescently labeled peptides (nerve versus adjacent non-nerve tissue)
Design: species or system mice
Experimental: To test the nerve binding affinity of each of the isolated peptide sequences in vivo, carboxyfluorescein (FAM)-labeled peptides were injected intravenously into living mice. Following a wash-out period, the contrast between nerve and muscle binding of the labeled peptides was evaluated.
Wild-type albino C57BL6 (Jackson Laboratory) or SKH1 (Charles River Laboratories) mice were treated intravenously with 150 nmoles of fluorescently labeled SEQ ID NO:4 via tail vein injection. Following a 2-3 hour wash-out period for SEQ ID NO:25 or 5-6 hours for SEQ ID NO:31, mice were anesthetized with ketamine and midazolam (80 mg/kg intraperitoneally), a skin incision was made over the dorsal surface of the hind, legs and the sciatic nerves exposed bilaterally. […] Nerves and adjacent non-nerve tissue was delineated with Image J and relative fluorescence was measured. Following background subtraction using dark current measurements and measurements of a standard, the ratios of peptide binding to nerve versus adjacent non-nerve tissue were calculated.

| SMILES | nerve fluorescence relative to adjacent non-neural tissue (FAM-labeled peptide intravenously, living mice, exposed sciatic nerves, after wash-out) [fold] | Nerve contrast (derivatives of peptide SEQ ID NO: 4) |
| --- | --- | --- |
| CC(=O)N[C@@H](CO)C(=O)N[C@@H](Cc1c[nH]cn1)C(=O)N[C@@H](CO)C(=O)N[C@@H](CO)C(=O)N[C@H](C(=O)N[C@@H](C)C(=O)N[C@@H](CCCNC(=N)N)C(=O)N[C@@H](CC(=O)O)C(=O)N[C@@H](CC(C)C)C(=O)N[C@@H](Cc1c[nH]c2ccccc12)C(=O)N1CCC[C@H]1C(=O)N[C@@H](Cc1c[nH]cn1)C(=O)NCC(=O)N[C@@H](CCCCN)C(=O)N[C@@H](CCC(=O)O)C(=O)NCC(=O)N[C@@H](CCCCNC(=O)c1ccc2c(c1)C(=O)OC21c2ccc(O)cc2Oc2cc(O)ccc21)C(N)=O)[C@@H](C)O [SEQ ID NO:26, acetyl-SHSSTARDLWPHGKEGK(5,6FAM)-amide, reference compound] (Ac-SHSSTARDLWPHGKEGK(5FAM)-NH2) | 2 | – |
| CC(=O)N[C@H](CO)C(=O)N[C@H](Cc1c[nH]cn1)C(=O)N[C@H](CO)C(=O)N[C@H](CC(N)=O)C(=O)N[C@@H](C(=O)N[C@H](CCC(N)=O)C(=O)N[C@@H](C(=O)N[C@H](CC(C)C)C(=O)N[C@H](C)C(=O)N[C@H](CCCCN)C(=O)N[C@H](C)C(=O)N1CCC[C@@H]1C(=O)N[C@H](CCC(=O)O)C(=O)N[C@H](Cc1c[nH]cn1)C(=O)N[C@@H](C(=O)NCC(=O)N[C@H](CCCCNC(=O)c1ccc2c(c1)C(=O)OC21c2ccc(O)cc2Oc2cc(O)ccc21)C(N)=O)[C@H](C)O)[C@H](C)O)[C@H](C)O [acetyl- SHSNTQTLAKAPEHT-GK-(5,6FAM)-amide] (Ac-[dS][dH][dS][dN][dT][dQ][dT][dL][dA][dK][dA][dP][dE][dH][dT]G[dK](5FAM)-NH2) | – | Medium |
